Experiment [1] deals with recombinant cynomolgus TfR-1 (cynomolgus). As to the kind of experiment: ELISA, plate-coated TfR-1, Fc fusions, anti-hFc HRP detection. In general terms: In an ELISA, binding on a coated surface is turned into a signal by an enzyme label.
Experiment [2] concerns the target recombinant human TfR-1 (human) (UniProt P02786). As to the kind of experiment: ELISA on coated hTfR1, crude ExpiHEK expression media, normalised to TXP1.
For experiment [3] the target is unchanged. Description: grade from expression level and hTfR1 binding ELISA of crude media (P preferred, A active, I inactive).
Experiment [4] deals with recombinant cynomolgus TfR-1 (cynomolgus). As to the kind of experiment: ELISA, plate-coated recombinant TfR1.
For experiment [5], the target named is recombinant human TfR-1 (human) (UniProt P02786). Description: ELISA, plate-coated recombinant TfR1.
The target is the same in experiment [6]. Description: ELISA on coated hTfR1.
Experiment [7] has the same target. As to the kind of experiment: ELISA, plate-coated TfR-1, Fc fusions, anti-hFc HRP detection.

Positions count from the first letter of the chain named. These are yes or no findings as the source states them, for the method shown. Some results given as binding are weak or reduced against the parent protein; the word gives no strength.

B1: R2D1 (Fc fusion, not shown: a dimerising Fc or GST)
chain: ARVDQTPQTATKETGESLTINCVLRDSNCALSSTYWYRKKSGSTNEENISKGGRYVETVDSGTKSFSLKINDLTVEDSGTYRCNVVGTWCMSWRDVSGDGTVVTVNA
B1: the binding entry in experiment [1] is “binds”.

B2: TXP1D4 (Fc fusion, not shown: a dimerising Fc or GST)
chain: B1 chain with R54K, D60E, T63S
As for B2, the binding entry in experiment [2], in experiment [3], in experiment [4] and in experiment [5] was “binds” throughout.

B3: TXP1D1 (Fc fusion, not shown: a dimerising Fc or GST)
chain: B1 chain
As for B3, the binding result in experiment [4] was “binds”.

B4: TXP1-R2-10 (Fc fusion, not shown: a dimerising Fc or GST)
chain: B1 chain with A10I, R54K, D60Q, T63S, S97Y, D99G, V102A
As to B4, the binding entry in experiment [3] was “binds”.

B5: TXP1-R2-9 (Fc fusion, not shown: a dimerising Fc or GST)
chain: B1 chain with A10I, R54K, D60E, T63S, S97Y, D99G, V102A
With B5, the binding result in experiment [3] is given as “binds”.

B6: TXP1D5 (Fc fusion, not shown: a dimerising Fc or GST)
chain: B1 chain with R54K, D60Q, T63S
As for B6, the binding result in experiment [2], in experiment [6] and in experiment [3] was “binds” in each case.

B7: R2D4 (Fc fusion, not shown: a dimerising Fc or GST)
chain: ARVDQTPQTATKETGESLTINCVLRDSNCALSSTYWYRKKSGSTNEENISKGGRKYVETVESGSKSFSLKINDLTVEDSGTYRCNVVGTWCMSWRDVSGDGTVVTVNA
B7: the binding result in experiment [1] and in experiment [7] was “binds” each time.

The values are drawn from patent publication US20250122298A1.
